This passage reports log2 fold change results from the supplement of paper PMC12819154, “High-throughput peptide-centric local stability assay extends protein–ligand identification to membrane proteins, tissues and bacteria” (Nature Structural & Molecular Biology, 2025).

The chains behind the UniProt entries cited, without tags or fusion partners. Where a name states a change or a piece, a line headed by the entry shows the natural chain unless it says otherwise.
UniProt P42126: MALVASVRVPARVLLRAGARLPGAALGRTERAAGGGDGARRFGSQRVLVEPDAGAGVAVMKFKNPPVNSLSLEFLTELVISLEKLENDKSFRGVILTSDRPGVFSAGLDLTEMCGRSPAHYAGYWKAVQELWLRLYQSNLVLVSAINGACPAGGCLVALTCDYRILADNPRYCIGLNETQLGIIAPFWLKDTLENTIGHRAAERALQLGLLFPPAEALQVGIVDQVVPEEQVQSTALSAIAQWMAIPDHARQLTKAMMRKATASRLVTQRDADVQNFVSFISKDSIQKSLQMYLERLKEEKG
UniProt P40121: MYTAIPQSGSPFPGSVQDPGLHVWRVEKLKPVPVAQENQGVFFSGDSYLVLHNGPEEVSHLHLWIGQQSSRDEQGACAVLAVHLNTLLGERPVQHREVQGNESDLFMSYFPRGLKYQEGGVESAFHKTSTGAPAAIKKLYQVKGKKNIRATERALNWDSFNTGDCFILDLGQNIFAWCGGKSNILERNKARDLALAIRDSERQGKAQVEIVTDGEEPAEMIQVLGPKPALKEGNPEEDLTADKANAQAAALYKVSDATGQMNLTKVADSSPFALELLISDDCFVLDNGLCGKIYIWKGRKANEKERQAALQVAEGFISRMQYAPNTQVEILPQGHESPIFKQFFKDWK
UniProt P35232: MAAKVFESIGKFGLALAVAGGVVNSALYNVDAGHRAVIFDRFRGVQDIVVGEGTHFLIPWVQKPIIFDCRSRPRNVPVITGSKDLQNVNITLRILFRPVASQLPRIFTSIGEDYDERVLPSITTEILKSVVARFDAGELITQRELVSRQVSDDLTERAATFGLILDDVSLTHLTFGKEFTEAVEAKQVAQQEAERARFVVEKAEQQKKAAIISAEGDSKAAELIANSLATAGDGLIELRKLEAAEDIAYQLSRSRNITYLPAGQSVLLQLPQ
UniProt P30533, whole entry: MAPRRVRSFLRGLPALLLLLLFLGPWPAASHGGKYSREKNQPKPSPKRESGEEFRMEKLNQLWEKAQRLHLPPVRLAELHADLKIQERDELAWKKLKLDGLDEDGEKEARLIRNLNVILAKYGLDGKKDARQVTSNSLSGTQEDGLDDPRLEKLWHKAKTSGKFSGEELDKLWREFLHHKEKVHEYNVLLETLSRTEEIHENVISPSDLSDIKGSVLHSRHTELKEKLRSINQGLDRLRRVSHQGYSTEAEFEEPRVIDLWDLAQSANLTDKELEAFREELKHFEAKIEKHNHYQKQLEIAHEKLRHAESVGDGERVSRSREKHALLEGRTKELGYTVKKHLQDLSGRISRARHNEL
UniProt P33992: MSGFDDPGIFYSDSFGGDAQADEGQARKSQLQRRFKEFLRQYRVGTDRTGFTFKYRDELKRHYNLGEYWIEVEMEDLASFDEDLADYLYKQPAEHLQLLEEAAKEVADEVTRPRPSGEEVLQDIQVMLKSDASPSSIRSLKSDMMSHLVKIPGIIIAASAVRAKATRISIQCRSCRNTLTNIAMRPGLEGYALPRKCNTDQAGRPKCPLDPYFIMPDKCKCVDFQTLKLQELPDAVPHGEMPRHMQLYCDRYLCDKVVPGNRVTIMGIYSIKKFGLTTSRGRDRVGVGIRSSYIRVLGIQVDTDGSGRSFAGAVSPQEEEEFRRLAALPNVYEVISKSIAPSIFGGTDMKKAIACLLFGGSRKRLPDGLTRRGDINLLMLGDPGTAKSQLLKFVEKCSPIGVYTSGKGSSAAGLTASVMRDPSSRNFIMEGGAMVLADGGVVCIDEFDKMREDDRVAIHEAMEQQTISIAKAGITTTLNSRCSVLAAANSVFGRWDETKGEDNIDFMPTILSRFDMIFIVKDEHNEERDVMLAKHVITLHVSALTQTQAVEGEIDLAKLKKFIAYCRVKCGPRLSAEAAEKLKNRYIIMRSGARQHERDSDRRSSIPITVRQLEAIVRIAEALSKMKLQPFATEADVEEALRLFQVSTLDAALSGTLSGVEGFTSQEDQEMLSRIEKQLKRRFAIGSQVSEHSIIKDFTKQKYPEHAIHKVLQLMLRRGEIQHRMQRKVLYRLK
UniProt P37198: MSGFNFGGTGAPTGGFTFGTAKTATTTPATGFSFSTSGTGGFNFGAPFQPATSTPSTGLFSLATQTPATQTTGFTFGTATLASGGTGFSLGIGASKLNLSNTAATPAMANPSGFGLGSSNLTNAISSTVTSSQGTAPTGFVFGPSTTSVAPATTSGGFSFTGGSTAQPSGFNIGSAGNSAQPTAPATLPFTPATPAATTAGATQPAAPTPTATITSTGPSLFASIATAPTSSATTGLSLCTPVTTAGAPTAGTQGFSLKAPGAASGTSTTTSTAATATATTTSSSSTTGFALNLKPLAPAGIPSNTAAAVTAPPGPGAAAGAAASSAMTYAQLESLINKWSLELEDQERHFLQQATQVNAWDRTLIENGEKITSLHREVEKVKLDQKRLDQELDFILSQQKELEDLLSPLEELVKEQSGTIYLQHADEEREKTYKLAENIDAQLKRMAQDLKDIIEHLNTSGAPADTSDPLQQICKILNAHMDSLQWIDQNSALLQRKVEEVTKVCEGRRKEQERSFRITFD
UniProt P35236: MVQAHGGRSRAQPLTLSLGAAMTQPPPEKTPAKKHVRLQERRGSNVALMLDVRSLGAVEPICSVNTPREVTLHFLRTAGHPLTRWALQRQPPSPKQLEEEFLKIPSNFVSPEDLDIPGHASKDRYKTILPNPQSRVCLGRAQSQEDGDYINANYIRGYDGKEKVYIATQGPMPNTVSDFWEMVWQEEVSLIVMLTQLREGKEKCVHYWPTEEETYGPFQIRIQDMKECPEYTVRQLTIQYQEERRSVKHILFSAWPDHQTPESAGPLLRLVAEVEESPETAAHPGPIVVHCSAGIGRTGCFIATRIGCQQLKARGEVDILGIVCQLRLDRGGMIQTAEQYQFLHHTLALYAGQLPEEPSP
UniProt P28698: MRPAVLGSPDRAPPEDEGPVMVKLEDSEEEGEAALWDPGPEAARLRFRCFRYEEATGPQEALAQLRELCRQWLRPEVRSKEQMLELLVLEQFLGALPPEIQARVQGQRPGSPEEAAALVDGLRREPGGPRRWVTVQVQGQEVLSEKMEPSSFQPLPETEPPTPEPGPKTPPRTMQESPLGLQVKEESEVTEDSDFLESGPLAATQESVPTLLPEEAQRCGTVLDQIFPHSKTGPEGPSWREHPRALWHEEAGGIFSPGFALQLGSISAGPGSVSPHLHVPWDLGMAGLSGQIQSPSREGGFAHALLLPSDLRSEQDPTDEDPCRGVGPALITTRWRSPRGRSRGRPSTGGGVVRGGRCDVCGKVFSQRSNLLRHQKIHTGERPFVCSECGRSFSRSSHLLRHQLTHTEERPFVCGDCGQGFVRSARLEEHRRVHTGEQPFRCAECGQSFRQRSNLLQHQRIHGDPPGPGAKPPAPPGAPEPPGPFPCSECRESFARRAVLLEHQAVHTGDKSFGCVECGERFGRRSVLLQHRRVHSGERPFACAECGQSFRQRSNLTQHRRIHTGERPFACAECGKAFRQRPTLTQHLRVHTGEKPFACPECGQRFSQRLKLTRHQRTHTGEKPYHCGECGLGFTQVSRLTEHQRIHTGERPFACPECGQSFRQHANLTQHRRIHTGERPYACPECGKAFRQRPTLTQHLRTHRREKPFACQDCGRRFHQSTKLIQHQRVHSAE
UniProt P35638, whole entry: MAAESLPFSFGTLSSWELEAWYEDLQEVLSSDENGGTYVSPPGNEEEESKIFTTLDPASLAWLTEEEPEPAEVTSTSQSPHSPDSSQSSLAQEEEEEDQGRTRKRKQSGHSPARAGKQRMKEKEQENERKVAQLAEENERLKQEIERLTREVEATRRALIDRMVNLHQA
UniProt P41227: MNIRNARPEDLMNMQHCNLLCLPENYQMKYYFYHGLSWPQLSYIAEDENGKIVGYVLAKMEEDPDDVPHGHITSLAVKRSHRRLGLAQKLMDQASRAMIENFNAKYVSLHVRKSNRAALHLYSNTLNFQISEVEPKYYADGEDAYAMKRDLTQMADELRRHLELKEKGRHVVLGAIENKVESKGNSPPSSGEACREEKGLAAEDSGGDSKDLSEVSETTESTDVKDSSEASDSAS
UniProt P39687: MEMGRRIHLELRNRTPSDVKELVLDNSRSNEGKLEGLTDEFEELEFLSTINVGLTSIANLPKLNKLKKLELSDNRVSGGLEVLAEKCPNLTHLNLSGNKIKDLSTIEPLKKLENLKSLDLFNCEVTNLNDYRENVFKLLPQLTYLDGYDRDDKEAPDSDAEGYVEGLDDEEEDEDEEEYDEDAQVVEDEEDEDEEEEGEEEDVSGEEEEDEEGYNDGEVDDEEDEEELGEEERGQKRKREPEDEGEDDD
UniProt P30304: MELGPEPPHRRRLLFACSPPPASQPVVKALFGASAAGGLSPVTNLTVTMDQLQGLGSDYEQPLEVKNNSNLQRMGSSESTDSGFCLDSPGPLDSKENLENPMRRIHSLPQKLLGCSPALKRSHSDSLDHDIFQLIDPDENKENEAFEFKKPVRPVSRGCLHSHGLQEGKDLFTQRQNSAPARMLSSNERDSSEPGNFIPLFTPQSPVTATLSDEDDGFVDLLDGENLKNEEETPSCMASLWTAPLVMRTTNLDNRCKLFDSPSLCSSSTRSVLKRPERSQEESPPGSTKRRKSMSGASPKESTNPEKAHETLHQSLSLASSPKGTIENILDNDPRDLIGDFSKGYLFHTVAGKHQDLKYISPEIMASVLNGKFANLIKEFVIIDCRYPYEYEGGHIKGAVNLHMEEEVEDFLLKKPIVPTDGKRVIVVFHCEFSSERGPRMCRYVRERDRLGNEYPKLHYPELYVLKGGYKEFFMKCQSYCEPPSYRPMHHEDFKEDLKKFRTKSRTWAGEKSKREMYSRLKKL
UniProt P35606: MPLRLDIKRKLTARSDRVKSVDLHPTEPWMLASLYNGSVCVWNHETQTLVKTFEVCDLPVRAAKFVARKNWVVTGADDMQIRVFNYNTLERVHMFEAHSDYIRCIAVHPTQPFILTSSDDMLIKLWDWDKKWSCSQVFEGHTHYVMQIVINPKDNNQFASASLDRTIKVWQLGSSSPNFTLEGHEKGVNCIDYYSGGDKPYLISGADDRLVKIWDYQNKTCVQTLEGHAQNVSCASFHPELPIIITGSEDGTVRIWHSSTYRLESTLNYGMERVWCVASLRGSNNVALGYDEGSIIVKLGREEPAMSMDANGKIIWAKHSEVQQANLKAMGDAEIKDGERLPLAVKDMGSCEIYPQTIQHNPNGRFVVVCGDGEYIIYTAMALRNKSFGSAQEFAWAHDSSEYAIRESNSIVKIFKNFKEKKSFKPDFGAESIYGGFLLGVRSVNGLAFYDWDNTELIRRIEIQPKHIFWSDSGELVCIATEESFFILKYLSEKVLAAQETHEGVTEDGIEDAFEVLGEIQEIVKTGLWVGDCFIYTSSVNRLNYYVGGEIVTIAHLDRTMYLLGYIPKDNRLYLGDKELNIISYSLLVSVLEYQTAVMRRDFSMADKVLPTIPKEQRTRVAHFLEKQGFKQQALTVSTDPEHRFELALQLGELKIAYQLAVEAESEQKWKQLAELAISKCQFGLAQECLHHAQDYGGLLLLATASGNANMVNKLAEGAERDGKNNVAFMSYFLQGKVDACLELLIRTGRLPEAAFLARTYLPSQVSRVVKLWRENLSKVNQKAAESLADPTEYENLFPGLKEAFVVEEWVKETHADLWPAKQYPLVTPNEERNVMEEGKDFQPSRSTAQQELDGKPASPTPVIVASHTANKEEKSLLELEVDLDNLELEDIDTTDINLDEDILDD
UniProt P40123, whole entry: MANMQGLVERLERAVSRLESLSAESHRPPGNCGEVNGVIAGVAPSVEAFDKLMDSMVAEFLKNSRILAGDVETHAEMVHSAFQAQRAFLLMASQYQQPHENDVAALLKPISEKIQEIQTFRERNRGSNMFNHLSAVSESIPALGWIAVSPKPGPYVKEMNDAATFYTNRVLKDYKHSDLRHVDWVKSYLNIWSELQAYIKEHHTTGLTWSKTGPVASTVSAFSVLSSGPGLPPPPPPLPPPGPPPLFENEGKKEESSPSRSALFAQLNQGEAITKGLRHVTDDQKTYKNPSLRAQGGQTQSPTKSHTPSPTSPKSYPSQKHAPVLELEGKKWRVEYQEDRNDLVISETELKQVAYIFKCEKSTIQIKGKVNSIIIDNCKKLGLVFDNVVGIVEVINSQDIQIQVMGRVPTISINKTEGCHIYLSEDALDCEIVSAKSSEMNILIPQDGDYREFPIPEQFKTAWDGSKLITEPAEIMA
UniProt P35030: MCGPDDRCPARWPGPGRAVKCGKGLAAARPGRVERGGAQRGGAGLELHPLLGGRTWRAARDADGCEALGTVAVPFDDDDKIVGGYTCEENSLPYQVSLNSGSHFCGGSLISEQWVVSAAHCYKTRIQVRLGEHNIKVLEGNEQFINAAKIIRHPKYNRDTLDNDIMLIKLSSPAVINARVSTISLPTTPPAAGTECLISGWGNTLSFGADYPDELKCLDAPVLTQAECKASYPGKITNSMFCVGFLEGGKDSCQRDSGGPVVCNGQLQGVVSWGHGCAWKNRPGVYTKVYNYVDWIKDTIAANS

The other results are listed elsewhere or left out. Most entries show no effect beyond the scatter of the controls.

Compound in the experiment: Cc1nc(Nc2ncc(C(=O)Nc3c(C)cccc3Cl)s2)cc(N2CCN(CCO)CC2)n1 [dasatinib]
As to the kind of experiment: log2 fold change of tryptic peptide abundance, ligand vs vehicle (limited proteolysis) (log2 ratio); higher = more trypsin-susceptible (destabilized). To be noted: ligand concentration: 5 uM; sample: K562 cleared lysate.
As for “UniProt P42126 (peptide sequence: SLQMYLER, peptide start residue: 289)”, the log2 fold change is -0.305.

Consider “CAPG (peptide sequence: VSDATGQMNLTK, peptide start residue: 254) (UniProt P40121)”, for which the log2 fold change turned out to be 0.124.

With “LAP3 (peptide sequence: ETLNISGPPLK, peptide start residue: 69) (UniProt P28838)”, the log2 fold change is -0.922.

On to “PHB (peptide sequence: QVAQQEAER, peptide start residue: 187) (UniProt P35232)”, for which the log2 fold change was found to be 0.574.

Consider “LRPAP1 (peptide sequence: LAELHADLK, peptide start residue: 76) (UniProt P30533)”, for which the log2 fold change is -0.552.

In the case of “UniProt P41229 (peptide sequence: VAGLQMTLTELR, peptide start residue: 843)”, the log2 fold change was found to be 0.0925.

For “PSMC2 (peptide sequence: DFLEAVNK, peptide start residue: 408) (UniProt P35998)”, the log2 fold change was 0.581.

On to “MCM5 (peptide sequence: AIACLLFGGSR, peptide start residue: 352) (UniProt P33992)”, for which the log2 fold change is -0.111.

For the target “PRDX2 (peptide sequence: KEGGLGPLNIPLLADVTR, peptide start residue: 92) (UniProt P32119)”, the log2 fold change stood at 0.196.

For “NUP62 (peptide sequence: RLDQELDFILSQQK, peptide start residue: 388) (UniProt P37198)”, the log2 fold change was -0.0773.

Take “PTPN7 (peptide sequence: GSNVALMLDVR, peptide start residue: 43) (UniProt P35236)”: the log2 fold change came out at 0.0983.

For “CUX1 (peptide sequence: SKEAEAAFLNVYKR, peptide start residue: 71) (UniProt P39880)”, the log2 fold change stood at 0.231.

In the case of “UniProt P28698 (peptide sequence: EGGFAHALLLPSDLR, peptide start residue: 298)”, the log2 fold change was 0.162.

Consider “DDIT3 (peptide sequence: MKEKEQENER, peptide start residue: 120) (UniProt P35638)”, for which the log2 fold change was found to be 0.213.

For “UniProt P41227 (peptide sequence: GRHVVLGAIENKVESK, peptide start residue: 168)”, the log2 fold change was -0.46.

For the target “TTK (peptide sequence: SECRDLVVPGSKPSGNDSCELR, peptide start residue: 304) (UniProt P33981)”, the log2 fold change was 0.366.

Take “ANP32A (peptide sequence: VSGGLEVLAEKCPNLTHLNLSGNK, peptide start residue: 76) (UniProt P39687)”: the log2 fold change was found to be 0.0684.

Consider “CDC25A (peptide sequence: GCLHSHGLQEGK, peptide start residue: 158) (UniProt P30304)”, for which the log2 fold change came out at 0.204.

As for “PRKAR1B (peptide sequence: RSPNEEYVEVGR, peptide start residue: 306) (UniProt P31321)”, the log2 fold change is -0.504.

Consider “PHKA1 (peptide sequence: AKELHVQNVHMYLPTK, peptide start residue: 706) (UniProt P46020)”, for which the log2 fold change was 0.686.

For the target “COPB2 (peptide sequence: ETHADLWPAKQYPLVTPNEER, peptide start residue: 813) (UniProt P35606)”, the log2 fold change was 0.172.

Turning to “MTHFR (peptide sequence: DVIEPIKDNDAAIR, peptide start residue: 282) (UniProt P42898)”, the log2 fold change was -0.139.

In the case of “ARID4A (peptide sequence: NLNFEQHFER, peptide start residue: 897) (UniProt P29374)”, the log2 fold change is 0.784.

On to “CAP2 (peptide sequence: VPTISINK, peptide start residue: 405) (UniProt P40123)”, for which the log2 fold change is -0.248.

Consider “ETV5 (peptide sequence: VKQEPTMYR, peptide start residue: 349) (UniProt P41161)”, for which the log2 fold change is -0.104.

As to “PBX2 (peptide sequence: LLGPPPPGGGR, peptide start residue: 5) (UniProt P40425)”, the log2 fold change is -0.109.

“UniProt P35030 (peptide sequence: DTLDNDIMLIK, peptide start residue: 159)”: the log2 fold change was -0.0128.

In the case of “DNAJA1 (peptide sequence: VKETTYYDVLGVKPNATQEELK, peptide start residue: 2) (UniProt P31689)”, the log2 fold change was 0.356.
